This is one part of the list. Residues, ends and D or L forms follow the SMILES beside them. *: point of attachment. Cbz = O=C(OCc1ccccc1)*
Tests used:
Assay in all cases: log2 fold change, soluble protein after heating vs DMSO (PISA); higher = thermal stabilisation; K562 cells, 10 uM, 30 min; active = over 0.2 and 3.5 SD of the protein, either way, in both replicates (recomputed)
erlotinib = compound: C#Cc1cccc(Nc2ncnc3cc(OCCOC)c(OCCOC)cc23)c1 [erlotinib]
Summary of the method: (§1)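 K562 cells (2×10^6 cells/mL) were treated with 10 μM compound for 30 min, and aliquots were heated for 3 min over 48°C-58°C. Pooled aliquots were extracted in PBS with 0.5% NP-40 at 4°C, and the supernatant after 21,000xg for 90 min was measured by TMTpro 16plex LC-MS/MS with channel sums equalised. Reported thermal stability, relative to control samples and from duplicates, is a log2 fold change.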

Amino acid sequences for entries named in this document (tags omitted). A change or cut given only in a name is not applied to a line headed by its entry.
UniProt Q9UNL2: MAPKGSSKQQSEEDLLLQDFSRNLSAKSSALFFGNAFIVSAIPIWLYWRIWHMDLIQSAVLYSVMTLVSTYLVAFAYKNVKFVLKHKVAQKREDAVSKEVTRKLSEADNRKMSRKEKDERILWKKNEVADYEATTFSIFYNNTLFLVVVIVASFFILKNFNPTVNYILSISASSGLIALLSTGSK
UniProt Q16385, whole entry, looked up: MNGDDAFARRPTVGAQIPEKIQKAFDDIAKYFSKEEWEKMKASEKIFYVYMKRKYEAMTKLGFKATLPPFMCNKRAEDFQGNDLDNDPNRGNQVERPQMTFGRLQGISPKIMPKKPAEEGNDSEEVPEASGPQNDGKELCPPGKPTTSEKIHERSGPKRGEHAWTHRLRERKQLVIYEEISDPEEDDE
UniProt P84103: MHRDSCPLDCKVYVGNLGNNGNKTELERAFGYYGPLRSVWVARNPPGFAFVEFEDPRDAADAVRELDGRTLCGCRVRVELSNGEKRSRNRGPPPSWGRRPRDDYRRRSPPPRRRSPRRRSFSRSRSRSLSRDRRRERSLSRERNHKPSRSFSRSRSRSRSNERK
UniProt Q8N0X7: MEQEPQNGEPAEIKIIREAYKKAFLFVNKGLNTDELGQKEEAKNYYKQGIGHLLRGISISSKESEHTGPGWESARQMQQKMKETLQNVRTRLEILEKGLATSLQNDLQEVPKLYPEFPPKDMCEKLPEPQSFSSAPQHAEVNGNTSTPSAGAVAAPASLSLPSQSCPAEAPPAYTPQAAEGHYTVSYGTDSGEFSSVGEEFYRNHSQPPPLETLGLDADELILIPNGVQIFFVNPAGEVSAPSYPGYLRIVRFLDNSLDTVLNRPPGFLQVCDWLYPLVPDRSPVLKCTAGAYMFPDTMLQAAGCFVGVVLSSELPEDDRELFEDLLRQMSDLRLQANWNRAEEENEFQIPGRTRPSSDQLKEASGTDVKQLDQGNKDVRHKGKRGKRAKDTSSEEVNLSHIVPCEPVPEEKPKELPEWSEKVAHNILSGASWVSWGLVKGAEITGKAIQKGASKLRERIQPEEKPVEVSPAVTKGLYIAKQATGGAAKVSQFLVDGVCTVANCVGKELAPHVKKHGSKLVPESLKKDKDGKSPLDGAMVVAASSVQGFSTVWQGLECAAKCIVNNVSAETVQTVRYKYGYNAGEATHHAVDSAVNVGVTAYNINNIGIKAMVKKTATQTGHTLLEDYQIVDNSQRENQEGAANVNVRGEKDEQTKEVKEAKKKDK
UniProt Q01130: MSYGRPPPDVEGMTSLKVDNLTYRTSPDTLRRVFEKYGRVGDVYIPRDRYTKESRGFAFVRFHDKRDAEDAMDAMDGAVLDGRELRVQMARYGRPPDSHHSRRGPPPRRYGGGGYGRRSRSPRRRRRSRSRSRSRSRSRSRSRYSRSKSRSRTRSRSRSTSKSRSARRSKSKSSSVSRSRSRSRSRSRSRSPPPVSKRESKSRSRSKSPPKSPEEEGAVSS
UniProt Q8N9Q2: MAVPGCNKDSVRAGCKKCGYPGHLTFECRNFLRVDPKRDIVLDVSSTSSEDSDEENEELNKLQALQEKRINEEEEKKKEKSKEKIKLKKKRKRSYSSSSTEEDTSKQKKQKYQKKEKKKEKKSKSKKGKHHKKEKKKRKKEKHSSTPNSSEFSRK
UniProt Q9UH36: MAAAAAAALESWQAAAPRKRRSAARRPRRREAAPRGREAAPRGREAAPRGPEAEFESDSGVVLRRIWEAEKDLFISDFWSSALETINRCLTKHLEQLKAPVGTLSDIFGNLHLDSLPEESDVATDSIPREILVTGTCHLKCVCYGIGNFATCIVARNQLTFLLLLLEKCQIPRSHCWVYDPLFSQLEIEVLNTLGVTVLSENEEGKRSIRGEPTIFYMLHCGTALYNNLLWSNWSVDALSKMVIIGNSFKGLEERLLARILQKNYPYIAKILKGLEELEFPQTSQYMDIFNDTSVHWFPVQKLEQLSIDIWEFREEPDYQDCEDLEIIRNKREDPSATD
UniProt Q8TCT7: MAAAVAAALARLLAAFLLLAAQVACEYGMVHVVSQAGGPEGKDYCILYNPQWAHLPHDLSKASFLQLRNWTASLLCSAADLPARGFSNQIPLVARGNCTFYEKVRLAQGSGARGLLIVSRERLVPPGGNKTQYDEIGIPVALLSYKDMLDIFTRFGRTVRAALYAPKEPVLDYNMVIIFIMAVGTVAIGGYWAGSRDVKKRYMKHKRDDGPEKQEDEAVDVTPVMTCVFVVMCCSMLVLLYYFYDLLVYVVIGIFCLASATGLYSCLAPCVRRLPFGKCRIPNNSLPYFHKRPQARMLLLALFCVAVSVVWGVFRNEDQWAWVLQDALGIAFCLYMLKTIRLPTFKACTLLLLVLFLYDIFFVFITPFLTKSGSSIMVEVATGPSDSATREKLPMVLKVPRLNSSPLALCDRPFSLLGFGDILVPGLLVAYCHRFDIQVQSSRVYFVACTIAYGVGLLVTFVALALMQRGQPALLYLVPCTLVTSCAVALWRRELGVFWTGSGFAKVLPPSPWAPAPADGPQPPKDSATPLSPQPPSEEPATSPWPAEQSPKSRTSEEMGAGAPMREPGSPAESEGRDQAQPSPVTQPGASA
UniProt Q13586, whole entry, looked up: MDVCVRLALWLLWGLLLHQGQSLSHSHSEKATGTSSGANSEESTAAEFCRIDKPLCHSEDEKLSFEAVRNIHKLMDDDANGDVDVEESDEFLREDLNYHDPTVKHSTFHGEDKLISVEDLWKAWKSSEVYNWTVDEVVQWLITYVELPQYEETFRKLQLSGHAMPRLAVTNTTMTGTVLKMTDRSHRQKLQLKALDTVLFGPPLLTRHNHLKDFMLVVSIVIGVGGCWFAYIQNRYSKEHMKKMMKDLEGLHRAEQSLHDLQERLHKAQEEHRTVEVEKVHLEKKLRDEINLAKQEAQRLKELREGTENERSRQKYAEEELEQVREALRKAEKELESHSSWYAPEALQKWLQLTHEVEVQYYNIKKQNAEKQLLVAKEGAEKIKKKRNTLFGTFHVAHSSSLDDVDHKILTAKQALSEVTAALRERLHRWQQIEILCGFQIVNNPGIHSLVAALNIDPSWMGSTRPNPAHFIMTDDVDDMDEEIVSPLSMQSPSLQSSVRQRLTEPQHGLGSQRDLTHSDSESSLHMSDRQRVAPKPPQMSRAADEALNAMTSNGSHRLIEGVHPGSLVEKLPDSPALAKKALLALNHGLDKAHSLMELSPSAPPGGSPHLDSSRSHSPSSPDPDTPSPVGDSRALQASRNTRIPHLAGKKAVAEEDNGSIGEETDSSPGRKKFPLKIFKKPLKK
UniProt P42229: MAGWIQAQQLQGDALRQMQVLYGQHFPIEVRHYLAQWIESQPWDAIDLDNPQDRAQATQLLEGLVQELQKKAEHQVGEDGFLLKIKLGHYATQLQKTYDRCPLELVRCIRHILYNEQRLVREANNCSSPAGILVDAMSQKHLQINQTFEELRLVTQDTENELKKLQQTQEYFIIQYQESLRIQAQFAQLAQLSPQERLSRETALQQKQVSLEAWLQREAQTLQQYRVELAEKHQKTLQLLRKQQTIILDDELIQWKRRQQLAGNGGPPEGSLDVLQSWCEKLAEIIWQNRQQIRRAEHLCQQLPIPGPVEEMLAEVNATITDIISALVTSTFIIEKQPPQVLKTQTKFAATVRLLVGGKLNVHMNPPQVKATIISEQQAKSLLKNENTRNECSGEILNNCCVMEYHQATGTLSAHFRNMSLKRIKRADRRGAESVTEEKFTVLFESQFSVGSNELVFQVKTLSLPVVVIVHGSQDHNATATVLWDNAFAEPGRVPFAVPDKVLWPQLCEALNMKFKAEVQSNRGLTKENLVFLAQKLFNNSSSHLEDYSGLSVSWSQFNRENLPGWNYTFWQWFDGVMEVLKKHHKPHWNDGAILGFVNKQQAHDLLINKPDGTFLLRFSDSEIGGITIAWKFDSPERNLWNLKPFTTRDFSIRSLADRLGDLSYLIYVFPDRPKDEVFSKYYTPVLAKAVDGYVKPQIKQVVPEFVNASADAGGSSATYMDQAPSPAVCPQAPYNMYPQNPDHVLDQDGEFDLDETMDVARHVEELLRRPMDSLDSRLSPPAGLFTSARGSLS
UniProt Q16629: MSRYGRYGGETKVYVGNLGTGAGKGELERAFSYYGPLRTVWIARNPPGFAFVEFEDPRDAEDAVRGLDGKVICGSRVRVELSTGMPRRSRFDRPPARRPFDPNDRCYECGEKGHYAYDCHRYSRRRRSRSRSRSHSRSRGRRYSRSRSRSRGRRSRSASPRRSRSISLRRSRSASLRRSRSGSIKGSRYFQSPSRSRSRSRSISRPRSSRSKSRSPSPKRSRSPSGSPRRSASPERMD
UniProt Q08170: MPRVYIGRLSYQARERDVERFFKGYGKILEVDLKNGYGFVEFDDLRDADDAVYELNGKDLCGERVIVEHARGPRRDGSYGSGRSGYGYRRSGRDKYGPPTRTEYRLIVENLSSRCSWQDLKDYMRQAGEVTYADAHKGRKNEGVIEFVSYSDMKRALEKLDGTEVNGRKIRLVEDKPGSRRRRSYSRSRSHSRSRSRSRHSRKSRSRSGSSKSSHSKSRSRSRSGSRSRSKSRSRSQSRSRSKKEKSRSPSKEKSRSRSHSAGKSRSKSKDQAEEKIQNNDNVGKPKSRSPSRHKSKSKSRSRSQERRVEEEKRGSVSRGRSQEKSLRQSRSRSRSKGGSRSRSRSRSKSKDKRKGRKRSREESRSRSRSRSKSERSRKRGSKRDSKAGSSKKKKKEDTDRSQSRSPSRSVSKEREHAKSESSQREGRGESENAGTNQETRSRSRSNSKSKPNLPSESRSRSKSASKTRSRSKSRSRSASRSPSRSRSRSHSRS
UniProt P51571: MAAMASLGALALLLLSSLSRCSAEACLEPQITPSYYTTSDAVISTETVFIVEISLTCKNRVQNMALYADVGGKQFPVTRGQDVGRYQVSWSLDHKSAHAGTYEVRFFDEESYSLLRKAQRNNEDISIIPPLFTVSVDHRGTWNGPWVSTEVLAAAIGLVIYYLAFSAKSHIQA
UniProt Q9Y5M8: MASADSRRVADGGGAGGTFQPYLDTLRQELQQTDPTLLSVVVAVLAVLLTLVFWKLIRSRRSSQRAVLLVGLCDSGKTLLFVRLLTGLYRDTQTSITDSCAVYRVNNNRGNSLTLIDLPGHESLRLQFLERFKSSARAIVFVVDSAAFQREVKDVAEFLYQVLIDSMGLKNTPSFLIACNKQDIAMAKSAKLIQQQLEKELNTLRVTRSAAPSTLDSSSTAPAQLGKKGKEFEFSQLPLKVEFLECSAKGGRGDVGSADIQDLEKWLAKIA
UniProt P35270: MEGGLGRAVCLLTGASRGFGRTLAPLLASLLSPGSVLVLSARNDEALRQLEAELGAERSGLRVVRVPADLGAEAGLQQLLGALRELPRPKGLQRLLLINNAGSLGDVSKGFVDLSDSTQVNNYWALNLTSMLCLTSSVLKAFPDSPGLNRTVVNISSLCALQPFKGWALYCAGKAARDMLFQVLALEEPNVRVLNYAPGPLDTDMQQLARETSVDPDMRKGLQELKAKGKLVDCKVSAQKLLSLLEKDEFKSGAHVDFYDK
UniProt Q9NUL3: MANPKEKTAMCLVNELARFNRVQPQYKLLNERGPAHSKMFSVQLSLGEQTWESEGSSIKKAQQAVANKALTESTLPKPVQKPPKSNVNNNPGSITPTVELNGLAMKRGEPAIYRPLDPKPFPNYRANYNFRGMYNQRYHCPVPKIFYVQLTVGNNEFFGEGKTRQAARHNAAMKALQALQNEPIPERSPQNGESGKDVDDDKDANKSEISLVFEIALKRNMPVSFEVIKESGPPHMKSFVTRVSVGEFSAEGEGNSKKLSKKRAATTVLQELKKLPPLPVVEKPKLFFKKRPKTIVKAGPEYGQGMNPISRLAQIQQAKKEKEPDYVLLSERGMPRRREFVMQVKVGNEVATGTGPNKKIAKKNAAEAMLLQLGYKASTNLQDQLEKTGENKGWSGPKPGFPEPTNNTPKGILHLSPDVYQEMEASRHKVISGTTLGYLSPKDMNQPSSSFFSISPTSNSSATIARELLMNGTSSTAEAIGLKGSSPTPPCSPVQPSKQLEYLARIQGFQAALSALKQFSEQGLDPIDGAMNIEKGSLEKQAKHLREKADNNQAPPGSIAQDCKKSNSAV

[1] = compound: C/C(=N\NC(=O)C1=CC(=CC=C1)S(=O)(=O)N2CCOCC2)/C3=C(C=CC(=C3)Cl)O
Summary of the method: as §1

[2] = compound: C1=CC(=C(C=C1Cl)C2=NC3=NC=CN=C3C(=N2)NC4=CC=NC=C4)F
Summary of the method: as §1

[3] = compound: C1=CC(=CC=C1C2=NC3=C(N2)C=C(C=C3)C(=O)N)OC4=CC=C(C=C4)Cl
Summary of the method: as §1

[4] = compound: C1=CC2=C(C=CC(=C2)/C=C\3/C(=O)NC(=NCC4=CC=CS4)S3)N=C1
Summary of the method: as §1

[5] = compound: C1=CC2=NC=CN=C2C=C1/C=C/3\C(=O)NC(=O)S3
Summary of the method: as §1

[6] = compound: C1=CC=C(C=C1)C2=NC(=C(N2)C3=CC=NC=C3)C4=CC(=C(C=C4)Cl)O
Summary of the method: as §1

[7] = compound: C1=CC=C2C(=C1)C3=NNC4=CC=CC(=C43)C2=O
Summary of the method: as §1

[8] = compound: C1CCN(C1)C(=O)NC2=CC=CC(=C2)NC3=NC=C(C(=N3)NCCC4=CN=CN4)Br
Summary of the method: as §1

[9] = compound: C1CN(CCC1(CC2=CC=C(C=C2)Cl)N)C3=NC=NC4=C3C=CN4
Summary of the method: as §1

IRAK-1-4 Inhibitor I = compound: C1COCCN1CCN2C3=CC=CC=C3N=C2NC(=O)C4=CC(=CC=C4)[N+](=O)[O-] [IRAK-1-4 Inhibitor I]
Summary of the method: as §1

ibrutinib = compound: C=CC(=O)N1CCC[C@@H](n2nc(-c3ccc(Oc4ccccc4)cc3)c3c(N)ncnc32)C1 [ibrutinib]
Summary of the method: as §1

[10] = compound: CC(=O)c1cnc2ccc(-c3cc(Cl)c(O)c(Cl)c3)nc2c1N[C@H]1CC[C@H](CN(C)C)CC1
Summary of the method: as §1

ralimetinib = compound: CC(C)(C)Cn1c(N)nc2ccc(-c3[nH]c(C(C)(C)C)nc3-c3ccc(F)cc3)nc21 [ralimetinib]
Summary of the method: as §1

[11] = compound: CC(C)(O)CC(=O)NCCn1ccc2ncnc(Nc3ccc(Oc4cccc(C(F)(F)F)c4)c(Cl)c3)c21
Summary of the method: as §1

[12] = compound: CC(C)C1=C2N=C(C=C(N2N=C1)NCC3=CC=CC=C3)NCCCCCCN
Summary of the method: as §1

[13] = compound: CC(C)C[C@@H](C=O)NC(=O)[C@H](CC(C)C)NC(=O)[C@H](CC(C)C)NC(=O)OCc1ccccc1
Summary of the method: as §1

pinometostat = compound: CC(C)N(C[C@H]1O[C@@H](n2cnc3c(N)ncnc32)[C@H](O)[C@@H]1O)[C@H]1C[C@@H](CCc2nc3cc(C(C)(C)C)ccc3[nH]2)C1 [pinometostat]
Summary of the method: as §1

[14] = compound: CC1=C(C2=C(C=C1)C(=O)C3=CC=CC=C3N2CCCN)C
Summary of the method: as §1

[15] = compound: CC1=C(C(CC(=O)N1)C2=CC=C(C=C2)C(F)(F)F)C(=O)NC3=C(C=C4C(=C3)C=NN4)F
Summary of the method: as §1

Target	log2 fold change (erlotinib)	log2 fold change [1]	log2 fold change [2]	log2 fold change [3]	log2 fold change [4]	log2 fold change [5]	log2 fold change [6]	log2 fold change [7]	log2 fold change [8]	log2 fold change [9]	log2 fold change (IRAK-1-4 Inhibitor I)	log2 fold change (ibrutinib)	log2 fold change [10]	log2 fold change (ralimetinib)	log2 fold change [11]	log2 fold change [12]	log2 fold change [13]	log2 fold change (pinometostat)	log2 fold change [14]	log2 fold change [15]
SSR3 isoform 2 (UniProt Q9UNL2)	inactive: 0.019	inactive: 0.054	inactive: -0.013	inactive: -0.003	inactive: -0.187	inactive: 0.037	inactive: 0.006	inactive: 0.028	inactive: -0.119	inactive: -0.011	inactive: 0.158	inactive: 0.029	inactive: 0.132	inactive: 0.06	inactive: 0.031	inactive: 0.01	inactive: -0.049	inactive: -0.134	inactive: -0.022	–
SSX2 (UniProt Q16385)	inactive: -0.068	inactive: -0.078	inactive: -0.023	inactive: 0.038	inactive: 0.175	inactive: 0.044	inactive: -0.032	inactive: -0.035	inactive: -0.022	inactive: -0.004	inactive: -0.038	inactive: -0.004	inactive: -0.006	inactive: -0.03	inactive: 0.022	inactive: -0.044	inactive: 0.123	inactive: -0.065	active: -1.33	–
SRSF3 (UniProt P84103)	inactive: -0.074	inactive: -0.03	inactive: -0.35	inactive: 0.053	inactive: -0.074	inactive: -0.009	inactive: -0.003	inactive: 0.006	inactive: 0.097	inactive: -0.107	inactive: -0.207	inactive: 0.11	inactive: -0.035	inactive: 0.112	inactive: 0.19	inactive: 0.083	inactive: 0.152	inactive: 0.064	inactive: -0.134	–
SPART (UniProt Q8N0X7)	inactive: 0.024	inactive: 0.008	inactive: 0.057	inactive: 0.008	inactive: 0.07	inactive: 0.002	inactive: -0.008	inactive: -0.014	inactive: -0.033	inactive: -0.055	inactive: 0.008	inactive: -0.033	inactive: -0.084	inactive: 0.02	inactive: -0.058	inactive: -0.056	inactive: -0.011	inactive: 0.034	inactive: 0.128	–
SRSF2 (UniProt Q01130)	inactive: -0.003	inactive: -0.034	inactive: -0.13	inactive: 0.02	inactive: -0.029	inactive: -0.032	inactive: -0.038	inactive: -0.032	inactive: 0.041	inactive: -0.027	inactive: -0.069	inactive: 0.016	inactive: -0.073	inactive: 0.01	inactive: 0.055	inactive: 0.03	inactive: 0.09	inactive: 0.022	inactive: -0.02	–
SREK1IP1 (UniProt Q8N9Q2)	inactive: -0.088	inactive: -0.11	inactive: -0.198	inactive: -0.036	inactive: -0.015	inactive: 0.019	inactive: -0.176	inactive: -0.024	inactive: 0.065	inactive: 0.011	–	inactive: -0.019	inactive: 0.066	inactive: -0.036	inactive: 0.053	inactive: 0.031	inactive: 0.089	–	inactive: 0.086	inactive: 0.014
SRRD (UniProt Q9UH36)	inactive: -0.032	inactive: -0.468	inactive: -0.008	inactive: -0.025	inactive: 0.133	inactive: 0.356	–	inactive: 0.072	inactive: 0.083	inactive: 0.084	inactive: -0.066	inactive: 0.142	inactive: -0.086	–	inactive: -0.065	inactive: -0.222	–	inactive: -0.089	inactive: 0.058	inactive: -0.086
SPTBN1 (UniProt Q01082)	inactive: 0.003	inactive: 0.067	inactive: -0.065	inactive: 0.011	inactive: 0.03	inactive: 0.046	inactive: 0.021	inactive: -0.055	inactive: -0.067	inactive: -0.071	inactive: -0.079	inactive: -0.013	inactive: -0.033	inactive: 0.08	inactive: 0.043	inactive: -0.094	inactive: 0.024	inactive: 0.044	inactive: -0.001	–
SPPL2B (UniProt Q8TCT7)	inactive: 0.021	inactive: -0.112	inactive: -0.039	inactive: 0.044	inactive: 0.081	inactive: 0.048	inactive: 0.003	inactive: -0.072	inactive: -0.041	inactive: 0.038	inactive: -0.004	inactive: 0.013	inactive: -0.039	inactive: 0.041	inactive: 0.179	inactive: -0.086	inactive: 0.101	inactive: -0.032	inactive: 0.02	–
STIM1 (UniProt Q13586)	inactive: -0.015	inactive: 0.01	inactive: 0.043	inactive: 0.014	inactive: 0.039	inactive: -0.007	inactive: -0.025	inactive: -0.067	inactive: -0.003	inactive: 0.016	inactive: 0.006	inactive: 0.007	inactive: -0.06	inactive: -0.036	inactive: -0.067	active: -0.33	inactive: 0.034	inactive: -0.011	inactive: 0.067	–
STAT5A (UniProt P42229)	inactive: 0.033	inactive: 0.173	inactive: 0.035	inactive: 0.048	inactive: 0.083	inactive: 0.01	inactive: 0.06	inactive: -0.026	inactive: -0.077	inactive: -0.028	inactive: -0.116	inactive: -0.088	inactive: -0.164	inactive: 0.046	inactive: 0.019	inactive: -0.053	inactive: 0.006	inactive: 0.033	inactive: -0.009	–
SRSF7 (UniProt Q16629)	inactive: 0.083	inactive: -0.043	inactive: -0.292	inactive: 0.063	inactive: -0.154	inactive: -0.032	inactive: -0.135	inactive: -0.037	inactive: 0.084	inactive: -0.063	inactive: -0.112	inactive: 0.128	inactive: -0.288	inactive: 0.098	inactive: 0.24	inactive: 0.032	inactive: 0.084	inactive: 0.128	inactive: -0.266	–
SRSF4 (UniProt Q08170)	inactive: -0.054	inactive: 0.015	inactive: -0.325	inactive: 0.05	inactive: -0.155	inactive: -0.072	inactive: -0.024	inactive: -0.109	inactive: 0.007	inactive: -0.254	inactive: -0.306	inactive: 0.069	inactive: -0.261	inactive: 0.125	inactive: 0.088	inactive: -0.174	inactive: 0.019	inactive: 0.126	inactive: -0.379	–
SSR4 (UniProt P51571)	inactive: -0.016	inactive: 0.055	inactive: 0.041	inactive: 0.051	inactive: 0.059	inactive: 0.007	inactive: -0.031	inactive: -0.002	inactive: 0	inactive: -0.025	inactive: 0.003	inactive: 0.032	inactive: -0.033	inactive: 0.049	inactive: -0.034	inactive: -0.03	inactive: 0.032	inactive: -0.028	inactive: 0.09	–
SRPRB (UniProt Q9Y5M8)	inactive: -0.015	inactive: 0.106	inactive: 0.122	inactive: -0.018	inactive: 0.045	inactive: -0.036	inactive: 0.089	inactive: 0.024	inactive: -0.006	inactive: 0.017	inactive: -0.021	inactive: 0.004	inactive: -0.014	inactive: 0.034	inactive: -0.055	inactive: -0.036	inactive: -0.051	inactive: -0.026	active: 0.292	–
SPR (UniProt P35270)	inactive: 0.018	inactive: -0.089	inactive: -0.01	inactive: 0.005	inactive: 0.115	inactive: 0.016	active: 0.732	inactive: 0.096	inactive: 0.02	inactive: 0.034	inactive: 0.063	inactive: 0.04	inactive: 0.344	inactive: 0.017	inactive: -0.038	inactive: 0.035	inactive: -0.008	inactive: -0.053	inactive: 0.083	–
STAU2 (UniProt Q9NUL3)	inactive: 0.064	inactive: -0.106	inactive: -0.021	inactive: -0.033	inactive: 0.007	inactive: -0.218	–	inactive: -0.051	inactive: 0.078	inactive: -0.001	inactive: -0.104	inactive: 0.08	inactive: 0.162	–	inactive: 0.077	inactive: -0.177	–	inactive: 0.138	inactive: -0.135	–

Part of the list above with just log2 fold change [15], log2 fold change [5] and log2 fold change (erlotinib).
Target | log2 fold change [15] | log2 fold change [5] | log2 fold change (erlotinib)
SREK1IP1 (UniProt Q8N9Q2) | inactive: 0.014 | inactive: 0.019 | inactive: -0.088
STIM1 (UniProt Q13586) | – | inactive: -0.007 | inactive: -0.015
